Data as given in PubChem BioAssay AID1671190 (National Center for Advancing Translational Sciences (NCATS), 2021).
The campaign covered roughly 580,000 compounds. About 6,100 (1.1%) were called active. This list was built around the results that the source calls inconclusive (neither active nor inactive); the mix of calls is not that of the screen. Calls come from the whole dose curve; as a rule, active = well fitted inhibition curve with a large enough effect; inconclusive = small, poorly fitted or top-dose-only effect, or another doubt; inactive = no such curve, though single readings can be large or run the other way. A potency beside an inconclusive call is a rough fit, not a confirmed value.

Amino acid sequences for entries named in this document (tags omitted). A change or cut given only in a name is not applied to a line headed by its entry.
UniProt P18054: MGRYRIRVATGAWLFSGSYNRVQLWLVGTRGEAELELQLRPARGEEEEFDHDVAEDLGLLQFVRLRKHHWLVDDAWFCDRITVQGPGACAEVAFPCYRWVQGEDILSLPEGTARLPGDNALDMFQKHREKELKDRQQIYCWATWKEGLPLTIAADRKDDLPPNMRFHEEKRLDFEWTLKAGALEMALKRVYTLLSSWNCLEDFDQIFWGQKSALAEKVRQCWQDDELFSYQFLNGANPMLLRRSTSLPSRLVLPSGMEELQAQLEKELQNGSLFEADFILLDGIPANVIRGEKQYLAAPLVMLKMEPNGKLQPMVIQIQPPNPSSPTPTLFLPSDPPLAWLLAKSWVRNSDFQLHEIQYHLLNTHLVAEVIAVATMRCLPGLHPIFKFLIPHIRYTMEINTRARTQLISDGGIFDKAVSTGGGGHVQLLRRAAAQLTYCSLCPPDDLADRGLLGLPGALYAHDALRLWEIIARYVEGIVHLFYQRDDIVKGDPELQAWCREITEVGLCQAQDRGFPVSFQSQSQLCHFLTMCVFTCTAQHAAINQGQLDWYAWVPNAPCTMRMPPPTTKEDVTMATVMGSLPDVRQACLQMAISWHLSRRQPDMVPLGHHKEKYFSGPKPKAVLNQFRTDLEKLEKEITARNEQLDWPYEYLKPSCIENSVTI

Each molecule was assayed against Polyunsaturated fatty acid lipoxygenase ALOX12 (Homo sapiens) (UniProt P18054) (assay: Primary qHTS assay for inhibitors of human arachidonate 12S-lipoxygenase (ALOX12): Round 2). Conditions: purified 12hLO, xylenol orange hydroperoxide absorbance; activity change, negative = inhibition: at 108 µM (top of the series) unless noted.
In short: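 Purified human 12hLO (150 nM final) in 25 mM Hepes, 0.01% Triton X-100, pH 7.0 was preincubated 15 min at room temperature with compound. Then 40 uM arachidonic acid was added, 30 min. Hydroperoxide was read by Fe-XO absorbance ratio 573/405 nm.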
% is set by controls: 0 for no effect and ±100 for the full control effect; potency is the fitted concentration of half-maximal effect.

SMILES	Potency	activity change, negative = inhibition
COC(=O)C1=C(C)NC(C)=C(C(=O)OCCCN2CCC(c3ccccc3)(c3ccccc3)CC2)C1c1cccc([N+](=O)[O-])c1 (configuration not stated)	inconclusive: 56.2 µM [inhibitor, partial curve, poor fit]	
CCN1CCc2c(sc(NC(=O)CSc3ccccc3)c2-c2nc3ccccc3s2)C1	inconclusive: 17.8 µM [inhibitor, partial curve, poor fit]	
Cc1cnc(NC(=O)Cc2ccccc2Cl)s1		inactive: -3.61%
CCCCNC(=O)c1ccc(Cl)c(Cl)c1		inactive: -25.9%
CCCCCCCCCCCCS[C@H]1CS(=O)(=O)C[C@@H]1O	inconclusive: 112 µM [inhibitor, single point]	
COc1cc(/C=C2\C(=O)NN(c3ccccc3)C2=O)cc([N+](=O)[O-])c1O	inconclusive: 28.2 µM [inhibitor, partial curve]	
COc1ccc(CCNC(=O)CNS(=O)(=O)c2ccc(Br)s2)cc1OC	inconclusive: 39.8 µM [inhibitor, partial curve, poor fit]	
O=S(=O)(c1cccnc1)N1CC(c2nc(CCOCC3CCOCC3)no2)C1		inactive: -11.2%
Nc1nccnc1C(=O)NCc1cccnc1-n1cncn1		inactive: -35.3%
Cc1ccc(-c2c(C(=O)N/N=C/c3ccc(C)o3)nnn2-c2nonc2N)cc1		inactive: -24.5%
COCC1CN(C)CC12CCN(Cc1ccc(OC)c(Cn3ccnc3)c1)CC2 (configuration not stated)		inactive: 118%
CCCN1CCN(C(=O)C(NC(=O)c2ccco2)C(C)C)CC1 (configuration not stated)	inconclusive: 31.6 µM [inhibitor, partial curve, poor fit]	
CCn1c(CSc2nc3ccccc3s2)nnc1SCC(=O)c1ccc(O)c(O)c1	inconclusive: 1.12 µM [inhibitor, full curve, poor fit]	
CCOC(=O)C1=C(N)n2c(s/c(=C\c3ccco3)c2=O)=C(C(=O)OCC)C1c1ccco1 (configuration not stated)	inconclusive: 44.7 µM [inhibitor, partial curve]	
COc1ccc(CCNC(=O)CC(Cc2ccc(C)cc2)C(=O)O)cc1OC (configuration not stated)		inactive: 19.4%
CCOc1cccc2sc(NC(=O)c3ccc(S(=O)(=O)N4CCc5ccccc54)cc3)nc12		inactive: -21.7%
CCc1cccc(C)c1NC(=O)C(CC)Sc1nc2ccncc2[nH]1 (configuration not stated)	inconclusive: 4.47 µM [inhibitor, full curve, poor fit]	
NC(=O)CNC(=O)[C@@]1(O)C[C@@H](O)[C@H](O)[C@@H](NC(=O)Nc2ccc(OC(F)(F)F)cc2)C1		inactive: 3.44%
OCC[C@@H]1C[C@@H](O)[C@H](O)[C@@]2(CCCCO2)O1		inactive: -17.2%
CC(C)C[C@@H]1N[C@H](C(=O)NCc2ccccn2)Cc2c[nH]c3cccc1c23		inactive: 121% [at 176 µM]
COCCCNC(=O)CSc1ccc(C)c(C)c1		inactive: -27.2%

Individual results from the entries so far:
O=S(=O)(c1cccnc1)N1CC(c2nc(CCOCC3CCOCC3)no2)C1 | activity change, negative = inhibition: inactive: -11.2%
Cc1cnc(NC(=O)Cc2ccccc2Cl)s1 | activity change, negative = inhibition: inactive: -3.61%

(listing goes on)

SMILES	Potency	activity change, negative = inhibition
CCOc1cc(C=O)ccc1OCC(=O)N1CCCC1		inactive: 18.2%
COCCNc1nc2c(S(=O)(=O)c3ccc(C)c(C)c3)nnn2c2ccccc12	inconclusive: 70.8 µM [inhibitor, partial curve, poor fit]	
O=C(CC1(CC2=NS(=O)(=O)c3ccccc3N2)CCCC1)NCCc1ccccc1		inactive: -12.9%
O=C(NCc1cccc(C(F)(F)F)c1)C1CC(c2ccccc2C(F)(F)F)=NO1 (configuration not stated)	inconclusive: 25.1 µM [inhibitor, partial curve, poor fit]	
CCOc1ccc(OCC)c(NC(=O)CN2CCN(c3ccc(C)cc3C)CC2)c1	inconclusive: 0.562 µM [inhibitor, full curve, poor fit]	
CC1=C(C(=O)OCc2ccccc2)C(c2ccc([N+](=O)[O-])cc2)NC(=O)N1C (configuration not stated)		inactive: -29.6%
CSc1ncc(C(=O)NCc2ccccc2Cl)c(C(F)(F)F)n1	inconclusive: 14.1 µM [inhibitor, full curve, poor fit]	
O=C(NCc1ccc(/C=N\NC(=O)C(=O)Nc2ccccc2Br)o1)C(=O)Nc1ccccc1		inactive: 0%
Cc1ccc(NCc2n[nH]c(=S)n2-c2cccc(Cl)c2)cc1	inconclusive: 31.6 µM [inhibitor, partial curve, poor fit]	
COc1cccc(CN2CC(C(=O)NCCSc3nnnn3C)CCC2=O)c1 (configuration not stated)	inconclusive: 126 µM [inhibitor, partial curve, poor fit]	
C[C@@H]1C(=O)O[C@H]2[C@H]1CC[C@@]1(C)Cc3sc(Nc4ccccc4)nc3[C@@H](C)[C@H]21	inconclusive: 126 µM [inhibitor, partial curve, poor fit]	
COc1ccc(C(c2ccc(C)o2)c2ccc(C)o2)c(OC)c1	inconclusive: 44.7 µM [inhibitor, partial curve, poor fit]	
COc1ccc(C2/C(=C(/O)c3ccccc3)C(=O)C(=O)N2CC(C)O)c(OC)c1 (configuration not stated)	inconclusive: 35.5 µM [inhibitor, full curve, poor fit]	
Cc1cc(C)c([S+](=O)([O-])c2nnn3c2nc(NC2CC2)c2ccccc23)c(C)c1	inconclusive: 89.1 µM [inhibitor, partial curve, poor fit]	
COc1ccc(NC(=S)Nc2cccc(Cl)c2)cc1OC	inconclusive: 50.1 µM [inhibitor, partial curve, poor fit]	
CCOC(=O)C1(C)C=C(Nc2ccc(O)cc2)C(=O)N1c1ccc(O)cc1 (configuration not stated)	inconclusive: 1.78 µM [inhibitor, single point]	
O=C(O)[C@H](Cc1ccccc1)N1C(=O)c2ccncc2C1=O	inconclusive: 56.2 µM [inhibitor, partial curve, poor fit]	
COc1ccc2nc(C[C@@H]3C[C@@H](C(C)C)[C@H](CNC(=O)COCC(=O)O)C=C3C)[nH]c2c1	inconclusive: 28.2 µM [inhibitor, partial curve, poor fit]	
CN(Cc1ccncc1)C(=O)CCCNC(=O)C1CC1		inactive: -9.06%
Cc1ccc2c(CC(=O)Nc3ccc(S(=O)(=O)Nc4nc(C)cc(C)n4)cc3)coc2c1	inconclusive: 44.7 µM [inhibitor, partial curve, poor fit]	
COc1cc(C2Nc3ccccc3-c3nnc(SCc4ccc(Cl)cc4)nc3O2)ccc1OCC(=O)O (configuration not stated)	inconclusive: 44.7 µM [inhibitor, partial curve, poor fit]	
